Values of other authors, collected in patent US20090155388A1, “WEIGHT PHYTO-NUTRACEUTICAL SYNERGISTIC COMPOSITION” (priority 2006, published 2009).
For at least one compound, name, drawing or mass did not settle the structure.

Settings: 30 men, compared with placebo

## C=C[C@@]1(C)CC(=O)[C@]2(O)[C@@]3(C)[C@@H](O)CCC(C)(C)[C@@H]3[C@H](O)[C@H](OC(C)=O)[C@@]2(C)O1 [Forskolin, forskolin]
  body fat percentage and fat mass: significantly decreased body fat percentage and fat mass
